Reference: the supplement of paper PMC11659162
Several values for one entry are separate records, joined by “and”; a condition that tells them apart may be missing. Equal entries are not always repeated. Some of the results follow. Single values of this set are uncertain.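 The cells are a human neuroglioma line carrying a green fluorescent autophagy reporter.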

System: H4 GFP-LC3
Assay: cell viability (scaled to control) (fraction of control); higher = more viable cells
Details: 5 µM; 6 h

SMILES	cell viability
C=CCN1C[C@H](C)N([C@H](c2ccc(C(=O)N(CC)CC)cc2)c2cccc(OC)c2)C[C@H]1C	1.1
Fc1ccc(C(OCCN2CCN(C/C=C/c3ccccc3)CC2)c2ccc(F)cc2)cc1	0.743
Oc1ccc2c3c1O[C@H]1[C@@H](O)CC[C@@]4(O)[C@@H](C2)N(CC2CCC2)CC[C@]314	1.19
NC(=O)[C@@H]1CCCN1C(=O)[C@H](Cc1ccccc1)NC(=O)[C@@H]1CCCN1C(=O)[C@@H](N)Cc1ccc(O)cc1	1.08
CC[C@@H](CO)NC(=O)[C@@H]1C=C2c3cccc4c3c(cn4C)C[C@H]2N(C)C1	0.663
O=c1[nH]c2ccccc2n1CCCN1CCC(n2c(=O)[nH]c3cc(Cl)ccc32)CC1	0.834
NCCc1c[nH]c2ccc(O)cc12	1.03 and 0.7
O=C(CCCN1CCC2(CC1)C(=O)N(Cc1cccc(F)c1)CN2c1ccccc1)c1ccc(F)cc1	0.815
O=C(O)Cc1cccnc1C(=O)O	1.11
S=C(NC1CCCCC1)N1CCC(c2cnc[nH]2)CC1	0.946
C=CC[N+]1(C)CC[C@]23c4c5ccc(O)c4O[C@H]2C(=O)CC[C@@]3(O)[C@H]1C5 (stereo partly specified)	0.967
c1ccc(CCCCN2CCC(c3ccccc3)CC2)cc1	1.08
NCCCC[C@H](NC(=O)[C@H](Cc1ccccc1)NC(=O)[C@@H](CCCN=C(N)N)NC(=O)[C@@H](N)Cc1ccc(O)cc1)C(N)=O	1.03
Clc1ccc(C2CC3CCC2N3)cn1 (racemic)	0.939
C[N+](C)(C)CCCCCCCCCC[N+](C)(C)C	0.91
CC(NC(=O)C(N)Cc1ccc(O)cc1)C(=O)NC(Cc1ccccc1)C(=O)NC(Cc1ccccc1)C(N)=O (stereo unspecified)	0.923
